Reference: PubChem BioAssay AID1159601 (NIAID, 2016)

Aim: 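Knock-down of 126 canonical TLR pathway genes, testing the TNF response to a TLR2 ligand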 (primary screen)
Cell system: human THP-1 reporter cells differentiated with PMA into macrophage-like cells
Reagents: single siRNA against human genes
Duration: ligand added 4 hours before read-out; cells assayed 48 to 72 hours after siRNA transfection
Challenge: Pam3CSK4 (TLR2 ligand) for 4 hours; dose not given
Measurement: 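Firefly over renilla luciferase ratio from a TNF promoter reporter after 4 h Pam3CSK4, plate scaled by median and MAD, robust z-score versus negative controls, replicate mean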
Scale: TNF reporter z-score: higher = stronger TNF promoter reporter activity
Rule for the call: 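The depositor grades each siRNA by the size of its mean z-score in either direction, with steps at 1, 1.5, 2 and 2.5; active calls sit near -1.5 or below, or near 1.5 or above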
Meaning of the calls: active = clear change (up or down); inactive = little change
In all, the deposit lists 756 reagents; this is a random part of them. 143 of them (19%) were called active. 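Calls include both lowered and raised reporter signal; each row is a single siRNA, not a gene summary; Pam3CSK4 dose not stated.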 Reagents against one gene are numbered here. No sequences are given here. The record does not give: the amount of reagent.

no.	target	reagent	TNF reporter z-score, replicate mean	Outcome
1	MAPK12 (GeneID 6300)	1	-0.137	inactive
2	MAPK12 (GeneID 6300)	2	0.0939	inactive
3	MAPK12 (GeneID 6300)	3	-0.892	inactive
4	MAPK12 (GeneID 6300)	4	-0.679	inactive
5	MAPK12 (GeneID 6300)	5	-0.141	inactive
6	MAPK12 (GeneID 6300)	6	-0.904	inactive
7	IKBKB (GeneID 3551)	1	0.798	inactive
8	IKBKB (GeneID 3551)	2	-0.578	inactive
9	IKBKB (GeneID 3551)	3	-0.242	inactive
10	IKBKB (GeneID 3551)	4	-0.122	inactive
11	IKBKB (GeneID 3551)	5	0.352	inactive
12	IKBKB (GeneID 3551)	6	0.285	inactive
13	TIRAP (GeneID 114609)	1	-1.69	active
14	TIRAP (GeneID 114609)	2	-0.685	inactive
15	TIRAP (GeneID 114609)	3	-3.3	active
16	TIRAP (GeneID 114609)	4	0.551	inactive
17	TIRAP (GeneID 114609)	5	1.22	inactive
18	TIRAP (GeneID 114609)	6	-3.55	active
19	ITGAX (GeneID 3687)	1	-0.873	inactive
20	ITGAX (GeneID 3687)	2	-1.17	inactive
21	ITGAX (GeneID 3687)	3	0.898	inactive
22	ITGAX (GeneID 3687)	4	-0.466	inactive
23	ITGAX (GeneID 3687)	5	-0.998	inactive
24	ITGAX (GeneID 3687)	6	-0.541	inactive
25	IRF9 (GeneID 10379)	1	-1.3	inactive
26	IRF9 (GeneID 10379)	2	-0.701	inactive
27	IRF9 (GeneID 10379)	3	-0.818	inactive
28	IRF9 (GeneID 10379)	4	-2.56	active
29	IRF9 (GeneID 10379)	5	-1.02	inactive
30	IRF9 (GeneID 10379)	6	-1.3	inactive
31	OTUD5 (GeneID 55593)	1	1.22	inactive
32	OTUD5 (GeneID 55593)	2	-2.6	active
33	OTUD5 (GeneID 55593)	3	-0.682	inactive
34	OTUD5 (GeneID 55593)	4	1.41	inactive
35	OTUD5 (GeneID 55593)	5	-1.65	active
36	OTUD5 (GeneID 55593)	6	-1.05	inactive
37	MAP3K14 (GeneID 9020)	1	0.354	inactive
38	MAP3K14 (GeneID 9020)	2	2.25	active
39	MAP3K14 (GeneID 9020)	3	-0.564	inactive
40	MAP3K14 (GeneID 9020)	4	-0.216	inactive
41	MAP3K14 (GeneID 9020)	5	1.63	active
42	MAP3K14 (GeneID 9020)	6	-1.48	inactive
43	PIK3CB (GeneID 5291)	1	-0.121	inactive
44	PIK3CB (GeneID 5291)	2	-1.56	active
45	PIK3CB (GeneID 5291)	3	-0.921	inactive
46	PIK3CB (GeneID 5291)	4	0.346	inactive
47	PIK3CB (GeneID 5291)	5	0.763	inactive
48	PIK3CB (GeneID 5291)	6	-0.0678	inactive
49	RELA (GeneID 5970)	1	-2.18	active
50	RELA (GeneID 5970)	2	-1.38	inactive
51	RELA (GeneID 5970)	3	-1.15	inactive
52	RELA (GeneID 5970)	4	-1.7	active
53	RELA (GeneID 5970)	5	-0.582	inactive
54	RELA (GeneID 5970)	6	-2.26	active
55	ETS1 (GeneID 2113)	1	-0.00851	inactive
56	ETS1 (GeneID 2113)	2	-1.68	active
57	ETS1 (GeneID 2113)	3	-0.951	inactive
58	ETS1 (GeneID 2113)	4	-0.372	inactive
59	ETS1 (GeneID 2113)	5	0.883	inactive
60	ETS1 (GeneID 2113)	6	-2.25	active
61	ELF4 (GeneID 2000)	1	-2.46	active
62	ELF4 (GeneID 2000)	2	-2.24	active
63	ELF4 (GeneID 2000)	3	-0.271	inactive
64	ELF4 (GeneID 2000)	4	-1.22	inactive
65	ELF4 (GeneID 2000)	5	-1.45	inactive
66	ELF4 (GeneID 2000)	6	-0.834	inactive

Copied from the listing (18 entries):
no.	target	reagent	TNF reporter z-score, replicate mean	Outcome
13	TIRAP (GeneID 114609)	1	-1.69	active
14	TIRAP (GeneID 114609)	2	-0.685	inactive
15	TIRAP (GeneID 114609)	3	-3.3	active
16	TIRAP (GeneID 114609)	4	0.551	inactive
17	TIRAP (GeneID 114609)	5	1.22	inactive
18	TIRAP (GeneID 114609)	6	-3.55	active
19	ITGAX (GeneID 3687)	1	-0.873	inactive
20	ITGAX (GeneID 3687)	2	-1.17	inactive
21	ITGAX (GeneID 3687)	3	0.898	inactive
22	ITGAX (GeneID 3687)	4	-0.466	inactive
23	ITGAX (GeneID 3687)	5	-0.998	inactive
24	ITGAX (GeneID 3687)	6	-0.541	inactive
25	IRF9 (GeneID 10379)	1	-1.3	inactive
26	IRF9 (GeneID 10379)	2	-0.701	inactive
27	IRF9 (GeneID 10379)	3	-0.818	inactive
28	IRF9 (GeneID 10379)	4	-2.56	active
29	IRF9 (GeneID 10379)	5	-1.02	inactive
30	IRF9 (GeneID 10379)	6	-1.3	inactive

More reagents follow:
no.	target	reagent	TNF reporter z-score, replicate mean	Outcome
67	MAPK14 (GeneID 1432)	1	-2.66	active
68	MAPK14 (GeneID 1432)	2	-2.23	active
69	MAPK14 (GeneID 1432)	3	-1.97	active
70	MAPK14 (GeneID 1432)	4	-1.32	inactive
71	MAPK14 (GeneID 1432)	5	-1.29	inactive
72	MAPK14 (GeneID 1432)	6	-1.92	active
73	TLR6 (GeneID 10333)	1	-0.137	inactive
74	TLR6 (GeneID 10333)	2	1.41	inactive
75	TLR6 (GeneID 10333)	3	-1.56	active
76	TLR6 (GeneID 10333)	4	-0.219	inactive
77	TLR6 (GeneID 10333)	5	0.569	inactive
78	TLR6 (GeneID 10333)	6	-0.555	inactive
79	MAPK10 (GeneID 5602)	1	0.399	inactive
80	MAPK10 (GeneID 5602)	2	-0.541	inactive
81	MAPK10 (GeneID 5602)	3	-0.515	inactive
82	MAPK10 (GeneID 5602)	4	-0.349	inactive
83	MAPK10 (GeneID 5602)	5	0.194	inactive
84	MAPK10 (GeneID 5602)	6	-0.429	inactive
85	RELB (GeneID 5971)	1	-0.425	inactive
86	RELB (GeneID 5971)	2	-0.368	inactive
87	RELB (GeneID 5971)	3	1.11	inactive
88	RELB (GeneID 5971)	4	-0.268	inactive
89	RELB (GeneID 5971)	5	-0.37	inactive
90	RELB (GeneID 5971)	6	-0.188	inactive
91	PIK3CA (GeneID 5290)	1	-0.0669	inactive
92	PIK3CA (GeneID 5290)	2	-0.982	inactive
93	PIK3CA (GeneID 5290)	3	1.73	active
94	PIK3CA (GeneID 5290)	4	-0.409	inactive
95	PIK3CA (GeneID 5290)	5	-1.16	inactive
96	PIK3CA (GeneID 5290)	6	1.28	inactive
97	EP300 (GeneID 2033)	1	1.05	inactive
98	EP300 (GeneID 2033)	2	0.135	inactive
99	EP300 (GeneID 2033)	3	0.371	inactive
100	EP300 (GeneID 2033)	4	0.2	inactive
101	EP300 (GeneID 2033)	5	-0.424	inactive
102	EP300 (GeneID 2033)	6	1.33	inactive
103	TICAM2 (GeneID 353376)	1	-0.309	inactive
104	TICAM2 (GeneID 353376)	2	0.537	inactive
105	TICAM2 (GeneID 353376)	3	-0.573	inactive
106	TICAM2 (GeneID 353376)	4	0.647	inactive
107	TICAM2 (GeneID 353376)	5	-1.69	active
108	TICAM2 (GeneID 353376)	6	-1.04	inactive
109	TBK1 (GeneID 29110)	1	-1.41	inactive
110	TBK1 (GeneID 29110)	2	-0.533	inactive
111	TBK1 (GeneID 29110)	3	1.4	inactive
112	TBK1 (GeneID 29110)	4	0.613	inactive
113	TBK1 (GeneID 29110)	5	-0.621	inactive
114	TBK1 (GeneID 29110)	6	-1.03	inactive
115	NFKBIB (GeneID 4793)	1	-0.805	inactive
116	NFKBIB (GeneID 4793)	2	-0.304	inactive
117	NFKBIB (GeneID 4793)	3	-0.202	inactive
118	NFKBIB (GeneID 4793)	4	-0.749	inactive
119	NFKBIB (GeneID 4793)	5	0.605	inactive
120	NFKBIB (GeneID 4793)	6	0.0809	inactive
121	IKBKE (GeneID 9641)	1	2.8	active
122	IKBKE (GeneID 9641)	2	0.225	inactive
123	IKBKE (GeneID 9641)	3	-1.26	inactive
124	IKBKE (GeneID 9641)	4	2.51	active
125	IKBKE (GeneID 9641)	5	-0.7	inactive
126	IKBKE (GeneID 9641)	6	-0.846	inactive
127	TBKBP1 (GeneID 9755)	1	0.92	inactive
128	TBKBP1 (GeneID 9755)	2	0.949	inactive
129	TBKBP1 (GeneID 9755)	3	-0.173	inactive
130	TBKBP1 (GeneID 9755)	4	0.307	inactive
131	TBKBP1 (GeneID 9755)	5	1.07	inactive
132	TBKBP1 (GeneID 9755)	6	-0.266	inactive
133	UBE2V1 (GeneID 7335)	1	0.803	inactive
134	UBE2V1 (GeneID 7335)	2	-0.17	inactive
135	UBE2V1 (GeneID 7335)	3	0.476	inactive
136	UBE2V1 (GeneID 7335)	4	-1.03	inactive
137	UBE2V1 (GeneID 7335)	5	-0.309	inactive
138	UBE2V1 (GeneID 7335)	6	0.591	inactive
139	ITGAM (GeneID 3684)	1	1.4	inactive
140	ITGAM (GeneID 3684)	2	-1.47	inactive
141	ITGAM (GeneID 3684)	3	-0.975	inactive
142	ITGAM (GeneID 3684)	4	-0.446	inactive
143	ITGAM (GeneID 3684)	5	-0.545	inactive
144	ITGAM (GeneID 3684)	6	0.369	inactive
